For some assays here: Expression grades refer to the transcript from which the peptide derives; gene names, where given, were looked up from the sequence.

Data set [1] relates to HLA peptide pools from tumor and normal tissue samples. In words: Identification and relative LC-MS quantitation of HLA-presented tumor associated peptides (presentation profiles). Set-up: species or system human. The note with it: cancer entities on which the peptide was found presented (Table 8A); value = entity abbreviations.
For data set [2], the system named is source genes (mRNA) in tumor and normal tissue samples. In words: Expression profiling (RNASeq) of genes encoding the peptides. The arrangement: species or system human. The note with it: RNASeq, tumors vs panel of normal tissues, value = tumor entities in this class.

In the case of “9: peptide found in PGR (gene looked up) (LLKGKPRAL; listed as Homo sapiens) [compound 9]”, the “Peptide Presentation on cancer entities” value in data set [1] was “UEC”. Further, in data set [2], the “Gene Expression in tumor samples: Highly over-expressed (++)” value was “UEC” and the “Gene Expression in tumor samples: over-expressed (+)” value (“Gene Expression … over-expressed (+)” below) is given as “BRCA”.
As for “22: peptide found in LOXL4 (gene looked up) (EVRLKPIL; listed as Homo sapiens) [compound 22]”, the “Peptide Presentation on cancer entities” value in data set [1] is reported as “CCC, MEL”. In data set [2], the “Gene Expression in tumor samples: Highly over-expressed (++)” value is listed as “MEL” and the “Gene Expression … over-expressed (+)” value was “CCC”.
With “183: peptide found in MET (gene looked up) (YVSKPGAQL; listed as Homo sapiens) [compound 183]”, the “Peptide Presentation on cancer entities” value in data set [1] is given as “GBC”. Further, the “Gene Expression … over-expressed (+)” value in data set [2] was “CCC, GBC, NSCLCadeno”.
For the substance “98: peptide found in CHRNA9 (gene looked up) (EPVNTNVVL; listed as Homo sapiens) [compound 98]”, in data set [1], the “Peptide Presentation on cancer entities” value was “NSCLCother”. For the same substance, in data set [2], the “Gene Expression in tumor samples: Highly over-expressed (++)” value is reported as “GBM, SCLC”; the “Gene Expression … over-expressed (+)” value is on record as “HNSCC”; the “Gene Expression in tumor samples: very highly over-expressed (+++)” value is “NSCLCother”.
Turning to “66: peptide found in MET (gene looked up) (DLKKTRVL; listed as Homo sapiens) [compound 66]”, the “Peptide Presentation on cancer entities” value in data set [1] is “HNSCC, NSCLCadeno, NSCLCsquam, PACA”. Further, in data set [2], the “Gene Expression … over-expressed (+)” value was “CCC, GBC, RCC”.
In the case of “17: peptide found in OR51E1 (gene looked up) (LLILKTVL; listed as Homo sapiens) [compound 17]”, in data set [1], the “Peptide Presentation on cancer entities” value is “BRCA”. Further, in data set [2], the “Gene Expression in tumor samples: Highly over-expressed (++)” value is “PRCA” and the “Gene Expression … over-expressed (+)” value is on record as “RCC”.
Regarding “153: peptide found in GPR143 (gene looked up) (HAIPHYVTM; listed as Homo sapiens) [compound 153]”, the “Peptide Presentation on cancer entities” value in data set [1] is recorded as “MEL”. In addition, in data set [2], the “Gene Expression in tumor samples: Highly over-expressed (++)” value is “MEL”.
As for “142: peptide found in SUCNR1 (gene looked up) (YNLIYSMCL; listed as Homo sapiens) [compound 142]”, the “Peptide Presentation on cancer entities” value in data set [1] is listed as “NSCLCadeno”. In data set [2], the “Gene Expression in tumor samples: Highly over-expressed (++)” value is “CCC” and the “Gene Expression … over-expressed (+)” value is “AML”.
Consider “139: peptide found in NPFFR2 (gene looked up) (YGRIGISLF; listed as Homo sapiens) [compound 139]”, for which the “Peptide Presentation on cancer entities” value in data set [1] is recorded as “HNSCC, NSCLCadeno”. Moreover, in data set [2], the “Gene Expression in tumor samples: Highly over-expressed (++)” value is reported as “HCC” and the “Gene Expression … over-expressed (+)” value is on record as “GBC”.
In the case of “105: peptide found in CCL17 (gene looked up) (APLKMLALV; listed as Homo sapiens) [compound 105]”, the “Peptide Presentation on cancer entities” value in data set [1] is listed as “BRCA, CCC, CRC, GBM, HNSCC, MEL, NHL, NSCLCadeno, NSCLCsquam, OSCAR, RCC”. Also, the “Gene Expression in tumor samples: Highly over-expressed (++)” value in data set [2] is “NHL”.
Turning to “187: peptide found in LPAR4 (gene looked up) (VPYNSVLF; listed as Homo sapiens) [compound 187]”, the “Peptide Presentation on cancer entities” value in data set [1] is “MEL”. For the same substance, the “Gene Expression … over-expressed (+)” value in data set [2] is recorded as “AML, GBM”.
Regarding “63: peptide found in LPAR3 (gene looked up) (YVKRKTNVL; listed as Homo sapiens) [compound 63]”, in data set [1], the “Peptide Presentation on cancer entities” value is on record as “HNSCC”. Besides, the “Gene Expression … over-expressed (+)” value in data set [2] is given as “HNSCC, OC, OSCAR, PRCA”.
“132: peptide found in GFAP (gene looked up) (IPIQAHQI; listed as Homo sapiens) [compound 132]”: in data set [1], the “Peptide Presentation on cancer entities” value is given as “GBM”. In addition, the “Gene Expression in tumor samples: Highly over-expressed (++)” value in data set [2] is “GBM”.
Regarding “15: peptide found in MYCN (gene looked up) (LLKKIEHA; listed as Homo sapiens) [compound 15]”, in data set [1], the “Peptide Presentation on cancer entities” value is given as “CCC, GBM”. In addition, in data set [2], the “Gene Expression in tumor samples: Highly over-expressed (++)” value is given as “AML, UEC” and the “Gene Expression … over-expressed (+)” value is given as “GBM, MEL, OC, SCLC, UBC”.
As for “218: peptide found in HPGDS (gene looked up) (DNHPRLVTL; listed as Homo sapiens) [compound 218]”, the “Peptide Presentation on cancer entities” value in data set [1] is “MEL”. In data set [2], the “Gene Expression … over-expressed (+)” value was “AML”.
For the substance “246: peptide found in ADAMTS12 (gene looked up) (RLLQKSKEL; listed as Homo sapiens) [compound 246]”, the “Peptide Presentation on cancer entities” value in data set [1] is reported as “BRCA, CCC, HNSCC, NSCLCadeno, NSCLCsquam, SCLC, UBC”. Besides, the “Gene Expression … over-expressed (+)” value in data set [2] is given as “BRCA, CCC, CRC, GBC, GC, HNSCC, NSCLCadeno, NSCLCother, NSCLCsquam, OSCAR, PACA. UBC”.
“90: peptide found in KLK4 (gene looked up) (TIGLGLHSL; listed as Homo sapiens) [compound 90]”: in data set [1], the “Peptide Presentation on cancer entities” value is listed as “UBC”. Also, the “Gene Expression in tumor samples: very highly over-expressed (+++)” value in data set [2] is “PRCA”.
In the case of “40: peptide found in APOB (gene looked up) (ESMLKTTL; listed as Homo sapiens) [compound 40]”, the “Peptide Presentation on cancer entities” value in data set [1] is on record as “CCC, HCC”. In data set [2], the “Gene Expression in tumor samples: Highly over-expressed (++)” value is reported as “HCC”.
For the substance “152: peptide found in APOB (gene looked up) (FNKLVTEL; listed as Homo sapiens) [compound 152]”, in data set [1], the “Peptide Presentation on cancer entities” value is “CCC, HCC”. In addition, the “Gene Expression in tumor samples: Highly over-expressed (++)” value in data set [2] is on record as “HCC”.
Turning to “5: peptide found in OR51E2 (gene looked up) (STMPKILAL; listed as Homo sapiens) [compound 5]”, the “Peptide Presentation on cancer entities” value in data set [1] is recorded as “PRCA”. Besides, the “Gene Expression in tumor samples: very highly over-expressed (+++)” value in data set [2] is on record as “PRCA”.
In the case of “168: peptide found in ABCC4 (gene looked up) (HVQDFTAF; listed as Homo sapiens) [compound 168]”, in data set [1], the “Peptide Presentation on cancer entities” value is on record as “NSCLCsquam”. Further, the “Gene Expression … over-expressed (+)” value in data set [2] is given as “PRCA”.
For the substance “197: peptide found in BRIP1 (gene looked up) (YKAYPSQL; listed as Homo sapiens) [compound 197]”, the “Peptide Presentation on cancer entities” value in data set [1] is “NSCLCadeno”. Further, in data set [2], the “Gene Expression … over-expressed (+)” value was “CRC, NHL, NSCLCother, NSCLCsquam, OSCAR, SCLC”.
On to “150: peptide found in PGR (gene looked up) (MRSSYIREL; listed as Homo sapiens) [compound 150]”, for which, in data set [1], the “Peptide Presentation on cancer entities” value was “UEC”. Moreover, in data set [2], the “Gene Expression in tumor samples: Highly over-expressed (++)” value is recorded as “UEC” and the “Gene Expression … over-expressed (+)” value was “BRCA”.
With “102: peptide found in IGF2BP3 (gene looked up) (IMKKIRESY; listed as Homo sapiens) [compound 102]”, in data set [1], the “Peptide Presentation on cancer entities” value is “MEL, NSCLCadeno, NSCLCsquam”. The “Gene Expression … over-expressed (+)” value in data set [2] was “AML, NSCLCother, UEC”.
“247: peptide found in DLL3 (gene looked up) (TPEPSVHAL; listed as Homo sapiens) [compound 247]”: the “Peptide Presentation on cancer entities” value in data set [1] was “NSCLCother”. Also, the “Gene Expression in tumor samples: Highly over-expressed (++)” value in data set [2] is “GBM, MEL, SCLC”.
For “138: peptide found in GRIN2D (gene looked up) (TQHLTVATL; listed as Homo sapiens) [compound 138]”, the “Peptide Presentation on cancer entities” value in data set [1] is recorded as “NSCLCsquam, OC”. In data set [2], the “Gene Expression in tumor samples: Highly over-expressed (++)” value is recorded as “CRC, GC, UBC” and the “Gene Expression … over-expressed (+)” value was “GBC, GBM, HNSCC, MEL, NSCLCadeno, NSCLCsquam, OSCAR, PACA, SCLC, UEC”.
“115: peptide found in PTPRZ1 (gene looked up) (MRILKRFLAC; listed as Homo sapiens) [compound 115]”: the “Peptide Presentation on cancer entities” value in data set [1] was “MEL”. Further, in data set [2], the “Gene Expression in tumor samples: Highly over-expressed (++)” value was “GBM”.
In the case of “178: peptide found in ADCY8 (gene looked up) (IPRLAVISI; listed as Homo sapiens) [compound 178]”, the “Peptide Presentation on cancer entities” value in data set [1] is recorded as “GBM”. Besides, the “Gene Expression … over-expressed (+)” value in data set [2] was “GBM”.
Consider “219: peptide found in ABCB5 (gene looked up) (VRNPKILIL; listed as Homo sapiens) [compound 219]”, for which, in data set [1], the “Peptide Presentation on cancer entities” value is on record as “CCC, CLL, GBM, HCC, MEL, NHL, NSCLCadeno, NSCLCsquam, PACA, PRCA, RCC, UEC”. The “Gene Expression … over-expressed (+)” value in data set [2] is on record as “MEL”.
